Test results from the supplement of paper PMC6411743.
± gives the standard deviation of the averaged measurements. Some of the results follow.

The chains behind the UniProt entries cited, without tags or fusion partners. Where a name states a change or a piece, a line headed by the entry shows the natural chain unless it says otherwise.
UniProt P61163, whole entry: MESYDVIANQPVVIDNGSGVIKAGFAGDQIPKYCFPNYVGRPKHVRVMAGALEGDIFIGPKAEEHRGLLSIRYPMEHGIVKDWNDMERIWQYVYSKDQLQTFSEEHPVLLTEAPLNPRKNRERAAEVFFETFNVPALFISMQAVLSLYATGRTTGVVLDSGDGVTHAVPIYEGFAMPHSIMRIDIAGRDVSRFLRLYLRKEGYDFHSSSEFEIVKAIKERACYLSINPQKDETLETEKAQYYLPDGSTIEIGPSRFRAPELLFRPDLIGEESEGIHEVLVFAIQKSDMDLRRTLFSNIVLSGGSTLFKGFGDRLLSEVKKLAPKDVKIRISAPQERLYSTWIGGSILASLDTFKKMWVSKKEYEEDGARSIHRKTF
UniProt P60602: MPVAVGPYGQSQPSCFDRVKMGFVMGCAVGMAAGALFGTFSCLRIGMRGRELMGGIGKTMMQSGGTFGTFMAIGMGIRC
UniProt P57088: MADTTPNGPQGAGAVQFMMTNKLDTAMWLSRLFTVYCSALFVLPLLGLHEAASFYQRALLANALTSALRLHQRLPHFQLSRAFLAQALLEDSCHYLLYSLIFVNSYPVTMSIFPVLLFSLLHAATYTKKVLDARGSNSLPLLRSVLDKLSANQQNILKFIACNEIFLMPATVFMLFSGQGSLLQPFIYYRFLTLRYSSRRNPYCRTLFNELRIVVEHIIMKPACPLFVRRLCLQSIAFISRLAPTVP
UniProt P58546, whole entry: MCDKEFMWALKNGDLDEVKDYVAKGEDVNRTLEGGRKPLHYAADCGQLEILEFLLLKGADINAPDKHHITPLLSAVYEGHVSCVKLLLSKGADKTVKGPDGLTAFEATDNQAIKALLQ
UniProt P62195, whole entry: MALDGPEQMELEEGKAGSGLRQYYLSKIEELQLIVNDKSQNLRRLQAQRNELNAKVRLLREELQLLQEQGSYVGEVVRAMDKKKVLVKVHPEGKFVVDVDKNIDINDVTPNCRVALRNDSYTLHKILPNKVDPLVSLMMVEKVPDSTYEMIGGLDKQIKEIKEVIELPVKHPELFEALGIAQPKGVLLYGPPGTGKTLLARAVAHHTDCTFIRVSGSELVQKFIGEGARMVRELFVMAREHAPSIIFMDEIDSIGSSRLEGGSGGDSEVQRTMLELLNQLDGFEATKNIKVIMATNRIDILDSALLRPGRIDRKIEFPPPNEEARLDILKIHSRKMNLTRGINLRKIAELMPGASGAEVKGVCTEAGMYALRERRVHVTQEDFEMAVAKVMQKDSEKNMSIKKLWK
UniProt P60953, whole entry, looked up: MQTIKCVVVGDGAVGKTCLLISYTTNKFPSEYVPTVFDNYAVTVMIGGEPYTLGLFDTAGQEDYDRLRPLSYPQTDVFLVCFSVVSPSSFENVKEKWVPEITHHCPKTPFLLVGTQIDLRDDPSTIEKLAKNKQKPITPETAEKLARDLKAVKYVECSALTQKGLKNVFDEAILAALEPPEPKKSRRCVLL
UniProt P54727: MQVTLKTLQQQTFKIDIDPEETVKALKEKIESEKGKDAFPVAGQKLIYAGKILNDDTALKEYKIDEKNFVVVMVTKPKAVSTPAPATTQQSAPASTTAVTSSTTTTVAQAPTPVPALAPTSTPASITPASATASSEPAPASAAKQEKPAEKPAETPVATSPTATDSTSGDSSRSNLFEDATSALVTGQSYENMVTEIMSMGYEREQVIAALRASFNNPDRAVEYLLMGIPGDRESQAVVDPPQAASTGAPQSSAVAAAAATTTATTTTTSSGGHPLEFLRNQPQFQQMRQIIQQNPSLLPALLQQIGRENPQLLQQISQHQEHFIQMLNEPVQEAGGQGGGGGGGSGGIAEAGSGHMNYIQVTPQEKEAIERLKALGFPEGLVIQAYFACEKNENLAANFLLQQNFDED
UniProt P63010: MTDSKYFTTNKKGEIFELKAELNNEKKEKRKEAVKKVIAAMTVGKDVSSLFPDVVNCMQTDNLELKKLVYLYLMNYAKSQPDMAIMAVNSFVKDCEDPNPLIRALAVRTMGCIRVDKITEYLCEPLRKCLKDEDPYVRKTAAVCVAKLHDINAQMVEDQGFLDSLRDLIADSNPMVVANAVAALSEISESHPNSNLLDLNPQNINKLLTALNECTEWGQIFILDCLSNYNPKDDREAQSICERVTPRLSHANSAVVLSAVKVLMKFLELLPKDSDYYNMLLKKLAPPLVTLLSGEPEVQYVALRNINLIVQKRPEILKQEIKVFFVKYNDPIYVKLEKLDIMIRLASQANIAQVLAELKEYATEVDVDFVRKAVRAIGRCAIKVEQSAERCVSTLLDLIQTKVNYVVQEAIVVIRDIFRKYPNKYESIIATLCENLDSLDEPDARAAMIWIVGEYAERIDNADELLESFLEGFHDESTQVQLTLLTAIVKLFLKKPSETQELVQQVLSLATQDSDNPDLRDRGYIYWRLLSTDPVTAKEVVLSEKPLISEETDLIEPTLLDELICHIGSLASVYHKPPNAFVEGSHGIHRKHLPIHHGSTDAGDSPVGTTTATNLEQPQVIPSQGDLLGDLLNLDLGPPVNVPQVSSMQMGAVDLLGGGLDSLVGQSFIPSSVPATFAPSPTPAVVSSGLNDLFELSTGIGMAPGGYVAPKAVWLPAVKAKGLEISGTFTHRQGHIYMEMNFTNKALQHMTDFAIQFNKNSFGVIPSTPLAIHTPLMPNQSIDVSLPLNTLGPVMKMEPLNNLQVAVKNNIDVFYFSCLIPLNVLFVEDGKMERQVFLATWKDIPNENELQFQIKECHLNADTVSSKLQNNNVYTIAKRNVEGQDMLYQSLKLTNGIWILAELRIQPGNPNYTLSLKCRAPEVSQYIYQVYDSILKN
UniProt P54098: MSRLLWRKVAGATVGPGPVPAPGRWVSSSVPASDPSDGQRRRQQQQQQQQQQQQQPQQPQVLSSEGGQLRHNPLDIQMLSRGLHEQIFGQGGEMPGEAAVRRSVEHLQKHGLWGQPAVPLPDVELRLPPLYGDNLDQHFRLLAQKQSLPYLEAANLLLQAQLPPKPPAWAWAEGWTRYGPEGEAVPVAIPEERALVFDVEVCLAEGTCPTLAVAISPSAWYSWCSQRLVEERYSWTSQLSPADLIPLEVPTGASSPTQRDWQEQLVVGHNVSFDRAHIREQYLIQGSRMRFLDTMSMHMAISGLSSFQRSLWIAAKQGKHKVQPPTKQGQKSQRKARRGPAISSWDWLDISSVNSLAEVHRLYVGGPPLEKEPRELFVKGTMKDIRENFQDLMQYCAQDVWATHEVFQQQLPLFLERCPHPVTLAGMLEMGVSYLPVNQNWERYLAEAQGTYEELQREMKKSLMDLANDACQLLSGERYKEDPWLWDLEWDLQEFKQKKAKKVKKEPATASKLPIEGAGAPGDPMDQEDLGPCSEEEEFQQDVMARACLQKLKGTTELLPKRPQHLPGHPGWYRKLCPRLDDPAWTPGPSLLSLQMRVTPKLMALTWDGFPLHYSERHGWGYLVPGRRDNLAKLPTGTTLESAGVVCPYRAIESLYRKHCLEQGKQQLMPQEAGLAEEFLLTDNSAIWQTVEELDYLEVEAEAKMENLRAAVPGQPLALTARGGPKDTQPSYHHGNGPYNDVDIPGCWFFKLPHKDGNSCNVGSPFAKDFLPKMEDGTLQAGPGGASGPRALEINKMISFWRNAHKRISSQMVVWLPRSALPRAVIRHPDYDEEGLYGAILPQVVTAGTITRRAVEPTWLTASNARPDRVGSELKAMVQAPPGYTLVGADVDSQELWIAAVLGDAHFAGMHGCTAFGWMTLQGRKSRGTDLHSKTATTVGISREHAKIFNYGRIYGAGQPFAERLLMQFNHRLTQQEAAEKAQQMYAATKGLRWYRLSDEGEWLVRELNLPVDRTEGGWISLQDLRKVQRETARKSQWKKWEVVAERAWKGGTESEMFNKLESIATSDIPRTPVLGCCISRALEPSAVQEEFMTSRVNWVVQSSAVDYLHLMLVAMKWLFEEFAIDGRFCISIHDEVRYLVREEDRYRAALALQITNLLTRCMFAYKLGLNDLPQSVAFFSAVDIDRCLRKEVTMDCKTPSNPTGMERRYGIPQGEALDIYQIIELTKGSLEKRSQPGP
UniProt P61457: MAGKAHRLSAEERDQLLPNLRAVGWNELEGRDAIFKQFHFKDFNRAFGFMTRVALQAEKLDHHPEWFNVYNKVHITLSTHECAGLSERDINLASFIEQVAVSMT
UniProt P78356: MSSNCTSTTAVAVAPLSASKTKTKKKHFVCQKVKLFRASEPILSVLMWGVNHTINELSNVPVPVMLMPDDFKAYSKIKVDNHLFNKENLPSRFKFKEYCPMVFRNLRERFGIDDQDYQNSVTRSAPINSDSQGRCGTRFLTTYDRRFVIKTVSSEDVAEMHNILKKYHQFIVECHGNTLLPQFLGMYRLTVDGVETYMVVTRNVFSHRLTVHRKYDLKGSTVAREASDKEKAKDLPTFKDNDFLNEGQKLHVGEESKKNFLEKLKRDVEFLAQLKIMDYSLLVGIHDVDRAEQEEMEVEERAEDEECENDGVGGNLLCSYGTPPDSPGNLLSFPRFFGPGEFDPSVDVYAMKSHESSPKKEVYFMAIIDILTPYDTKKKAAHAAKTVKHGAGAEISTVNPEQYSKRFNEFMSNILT
UniProt P61981: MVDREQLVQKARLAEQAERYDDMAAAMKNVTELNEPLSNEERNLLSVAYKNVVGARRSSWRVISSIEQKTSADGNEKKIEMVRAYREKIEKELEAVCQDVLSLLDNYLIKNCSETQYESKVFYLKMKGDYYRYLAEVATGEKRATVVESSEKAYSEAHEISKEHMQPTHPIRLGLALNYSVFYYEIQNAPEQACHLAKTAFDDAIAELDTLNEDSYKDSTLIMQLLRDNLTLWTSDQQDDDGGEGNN
UniProt P51692: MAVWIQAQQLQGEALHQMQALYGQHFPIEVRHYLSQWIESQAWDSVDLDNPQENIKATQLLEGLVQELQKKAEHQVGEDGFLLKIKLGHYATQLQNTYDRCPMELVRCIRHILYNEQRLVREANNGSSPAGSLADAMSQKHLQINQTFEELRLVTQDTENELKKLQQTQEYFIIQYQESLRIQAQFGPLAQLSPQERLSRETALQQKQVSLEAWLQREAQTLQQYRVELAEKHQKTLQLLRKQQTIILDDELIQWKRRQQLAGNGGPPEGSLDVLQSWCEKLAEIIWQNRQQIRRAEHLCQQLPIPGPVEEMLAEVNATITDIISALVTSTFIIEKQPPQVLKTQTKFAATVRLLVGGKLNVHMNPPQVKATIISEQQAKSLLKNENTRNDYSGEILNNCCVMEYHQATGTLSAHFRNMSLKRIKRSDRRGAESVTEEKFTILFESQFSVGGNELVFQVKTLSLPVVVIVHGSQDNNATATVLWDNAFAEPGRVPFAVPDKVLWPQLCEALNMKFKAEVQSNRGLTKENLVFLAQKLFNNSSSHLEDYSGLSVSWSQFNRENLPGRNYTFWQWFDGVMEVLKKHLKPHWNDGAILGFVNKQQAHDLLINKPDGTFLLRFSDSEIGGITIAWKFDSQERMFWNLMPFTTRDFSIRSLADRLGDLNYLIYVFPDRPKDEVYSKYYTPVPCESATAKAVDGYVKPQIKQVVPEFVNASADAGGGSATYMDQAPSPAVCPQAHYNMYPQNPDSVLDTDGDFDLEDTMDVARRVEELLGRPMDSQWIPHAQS
UniProt P85037: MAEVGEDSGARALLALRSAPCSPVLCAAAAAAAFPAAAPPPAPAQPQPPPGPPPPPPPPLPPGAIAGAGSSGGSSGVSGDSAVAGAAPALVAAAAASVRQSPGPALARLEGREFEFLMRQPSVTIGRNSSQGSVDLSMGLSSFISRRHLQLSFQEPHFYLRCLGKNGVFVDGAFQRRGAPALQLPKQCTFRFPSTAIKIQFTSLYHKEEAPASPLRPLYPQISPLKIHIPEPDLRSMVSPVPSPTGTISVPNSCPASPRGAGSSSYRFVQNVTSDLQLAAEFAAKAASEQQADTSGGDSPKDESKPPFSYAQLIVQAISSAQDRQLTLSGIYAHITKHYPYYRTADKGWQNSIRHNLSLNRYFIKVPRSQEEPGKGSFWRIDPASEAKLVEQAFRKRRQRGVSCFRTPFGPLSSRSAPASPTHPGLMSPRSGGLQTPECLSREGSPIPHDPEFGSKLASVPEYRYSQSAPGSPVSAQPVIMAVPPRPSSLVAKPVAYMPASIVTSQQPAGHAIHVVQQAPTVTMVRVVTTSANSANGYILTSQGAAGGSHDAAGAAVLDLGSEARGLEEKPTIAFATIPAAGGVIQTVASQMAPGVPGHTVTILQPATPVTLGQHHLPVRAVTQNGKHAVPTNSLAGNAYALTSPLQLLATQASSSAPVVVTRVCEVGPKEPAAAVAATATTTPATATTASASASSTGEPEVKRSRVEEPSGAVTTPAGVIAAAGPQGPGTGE
UniProt P54920: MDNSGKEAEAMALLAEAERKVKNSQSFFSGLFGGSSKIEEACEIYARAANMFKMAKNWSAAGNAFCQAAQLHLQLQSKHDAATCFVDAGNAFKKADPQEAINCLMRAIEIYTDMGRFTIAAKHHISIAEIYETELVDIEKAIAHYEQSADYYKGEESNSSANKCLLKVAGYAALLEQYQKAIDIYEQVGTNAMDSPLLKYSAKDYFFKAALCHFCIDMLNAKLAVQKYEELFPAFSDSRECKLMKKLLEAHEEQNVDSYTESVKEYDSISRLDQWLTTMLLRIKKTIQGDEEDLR

Compound: Nc1nc2c(ncn2[C@@H]2O[C@H](COP(=O)(O)OP(=O)(O)OP(=O)(O)O)[C@@H](O)[C@H]2O)c(=O)[nH]1 [guanosine triphosphate]
Assay: NP40-soluble protein abundance relative to vehicle (solubility fold change) (ratio); higher = more soluble protein in presence of GTP
Outline: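 Eight concentrations, 0.1 to 10 mM, were tested on Jurkat crude lysate for 10 min at room temperature and then 3 min at 37 °C, in three independent experiments. The lysate was solubilised with 0.8% NP40 and benzonase, ultracentrifuged, and the supernatant TMT-labelled for LC-MS/MS. Each value is the fold change against the detergent-processed vehicle in its own replicate, from vsn-normalised intensities.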

Target	NP40-soluble protein abundance (concentration: 0.1mM)	NP40-soluble protein abundance (concentration: 0.5mM)	NP40-soluble protein abundance (concentration: 1mM)	NP40-soluble protein abundance (concentration: 2mM)	NP40-soluble protein abundance (concentration: 4mM)	NP40-soluble protein abundance (concentration: 6mM)	NP40-soluble protein abundance (concentration: 8mM)	NP40-soluble protein abundance (concentration: 10mM)
UniProt P62314	1.05 ± 0.072	1.14 ± 0.14	1.03 ± 0.12	1.15 ± 0.18	1.23 ± 0.17	1.32 ± 0.24	1.23 ± 0.14	1.22 ± 0.092
UniProt P61163	1.05 ± 0.086	1.13 ± 0.14	1.04 ± 0.12	1.13 ± 0.21	1.15 ± 0.16	1.12 ± 0.19	1.07 ± 0.11	1.07 ± 0.13
UniProt P53621 and related entries	1.04 ± 0.039	1.09 ± 0.094	0.974 ± 0.069	1.04 ± 0.15	1.05 ± 0.13	1.03 ± 0.15	0.978 ± 0.055	0.971 ± 0.084
ROMO1 (UniProt P60602)	0.979 ± 0.035	0.931 ± 0.071	0.897 ± 0.05	0.937 ± 0.085	0.882 ± 0.05	0.855 ± 0.041	0.83 ± 0.096	0.866 ± 0.045
UniProt P61129	0.917 ± 0.046	0.976 ± 0.051	0.929 ± 0.16	0.907 ± 0.18	0.915 ± 0.12	0.959 ± 0.13	0.954 ± 0.063	1.02 ± 0.063
TMEM33 (UniProt P57088)	1.01 ± 0.12	0.998 ± 0.095	0.844 ± 0.048	0.939 ± 0.21	0.947 ± 0.18	0.845 ± 0.1	0.818 ± 0.089	0.883 ± 0.12
MTPN (UniProt P58546)	0.855 ± 0.027	0.831 ± 0.045	0.927 ± 0.031	0.912 ± 0.041	0.888 ± 0.026	0.888 ± 0.073	0.824 ± 0.14	0.905 ± 0.045
UniProt P62241 and related entries	0.942 ± 0.085	1.05 ± 0.12	1.08 ± 0.26	1.01 ± 0.29	0.893 ± 0.35	0.836 ± 0.34	0.718 ± 0.28	0.765 ± 0.33
UniProt P51398 and related entries	1.04 ± 0.064	1.09 ± 0.15	1.12 ± 0.22	1.21 ± 0.28	1.23 ± 0.3	1.17 ± 0.28	1.08 ± 0.21	1.03 ± 0.21
UniProt P62195	1.03 ± 0.069	1.08 ± 0.12	1.04 ± 0.14	1.07 ± 0.17	1.06 ± 0.15	1.08 ± 0.19	1.06 ± 0.16	0.977 ± 0.15
UniProt P60953	0.87 ± 0.13	0.935 ± 0.12	0.871 ± 0.13	0.831 ± 0.12	0.79 ± 0.13	0.813 ± 0.11	0.812 ± 0.1	0.816 ± 0.12
NUP107 (UniProt P57740)	1.06 ± 0.06	1.08 ± 0.043	1.06 ± 0.036	1.1 ± 0.054	1.11 ± 0.072	1.12 ± 0.04	1.13 ± 0.073	1.15 ± 0.097
UniProt P54727 and related entries	0.887 ± 0.057	0.844 ± 0.059	0.937 ± 0.044	0.881 ± 0.054	0.889 ± 0.059	0.868 ± 0.037	0.842 ± 0.087	0.889 ± 0.03
UniProt P60604	1.08 ± 0.071	0.982 ± 0.018	1.12 ± 0.048	1.06 ± 0.065	1.1 ± 0.03	1.04 ± 0.012	1.15 ± 0.065	1.15 ± 0.044
UniProt P78362 and related entries	1.05 ± 0.077	1.08 ± 0.12	1.12 ± 0.12	1.18 ± 0.14	1.25 ± 0.12	1.31 ± 0.12	1.37 ± 0.058	1.42 ± 0.069
CCT4 (UniProt P50991)	1.03 ± 0.037	1.1 ± 0.11	1.12 ± 0.12	1.13 ± 0.16	1.11 ± 0.18	1.1 ± 0.19	1.09 ± 0.21	1.05 ± 0.21
P62158 (UniProt P0DP23)	0.715 ± 0.11	0.763 ± 0.14	0.991 ± 0.17	1.12 ± 0.19	1.09 ± 0.21	1.15 ± 0.24	0.939 ± 0.14	1.14 ± 0.11
UniProt P56937 and related entries	1.04 ± 0.053	0.9775 ± 0.0047	0.952 ± 0.038	0.872 ± 0.042	0.873 ± 0.032	0.912 ± 0.054	0.828 ± 0.031	0.801 ± 0.077
UniProt P84085	1.03 ± 0.012	1.01 ± 0.018	0.962 ± 0.046	0.925 ± 0.053	0.874 ± 0.06	0.922 ± 0.05	0.863 ± 0.093	0.83 ± 0.12
UniProt P63010 and related entries	0.986 ± 0.014	1.07 ± 0.047	0.996 ± 0.021	1.01 ± 0.014	0.965 ± 0.02	1.03 ± 0.032	0.998 ± 0.012	1.03 ± 0.065
POLG (UniProt P54098)	1.05 ± 0.13	1.15 ± 0.089	0.973 ± 0.034	1.06 ± 0.13	1.03 ± 0.14	1 ± 0.084	0.948 ± 0.035	1 ± 0.11
PCBD1 (UniProt P61457)	1.03 ± 0.046	1 ± 0.031	1.05 ± 0.074	1.04 ± 0.059	1.01 ± 0.021	0.9294 ± 0.009	0.968 ± 0.017	1.01 ± 0.06
TPMT (UniProt P51580)	1.01 ± 0.042	1 ± 0.057	0.93 ± 0.058	0.931 ± 0.083	0.893 ± 0.1	0.894 ± 0.081	0.87 ± 0.066	0.832 ± 0.1
UniProt P63220 and related entries	0.881 ± 0.12	0.86 ± 0.14	1.05 ± 0.19	0.945 ± 0.17	0.848 ± 0.23	0.824 ± 0.22	0.688 ± 0.23	0.832 ± 0.29
UniProt P78356	0.986 ± 0.062	0.981 ± 0.045	0.961 ± 0.02	0.984 ± 0.065	0.989 ± 0.092	1 ± 0.079	1.04 ± 0.05	1.03 ± 0.081
UniProt P61981	0.845 ± 0.11	0.811 ± 0.067	1.01 ± 0.14	0.987 ± 0.076	0.942 ± 0.075	0.968 ± 0.12	0.912 ± 0.15	1.05 ± 0.16
UniProt P56270-2	0.94 ± 0.017	0.939 ± 0.04	0.954 ± 0.033	0.948 ± 0.065	0.981 ± 0.072	0.966 ± 0.081	1.02 ± 0.037	1.07 ± 0.075
STAT5B (UniProt P51692)	1.02 ± 0.027	0.97 ± 0.024	0.953 ± 0.029	0.922 ± 0.029	0.968 ± 0.062	0.944 ± 0.059	0.914 ± 0.037	0.89 ± 0.056
FOXK1 (UniProt P85037)	0.995 ± 0.033	1.02 ± 0.052	1.051 ± 0.0061	1.01 ± 0.075	1.04 ± 0.023	1.03 ± 0.054	1.09 ± 0.091	1.07 ± 0.12
UniProt P54920 and related entries	0.8901 ± 0.0051	0.858 ± 0.05	0.978 ± 0.042	0.963 ± 0.039	0.962 ± 0.029	0.943 ± 0.021	0.881 ± 0.1	0.951 ± 0.037

Random excerpt: 2 records from the list.
Target	NP40-soluble protein abundance (concentration: 0.1mM)	NP40-soluble protein abundance (concentration: 0.5mM)	NP40-soluble protein abundance (concentration: 1mM)	NP40-soluble protein abundance (concentration: 2mM)	NP40-soluble protein abundance (concentration: 4mM)	NP40-soluble protein abundance (concentration: 6mM)	NP40-soluble protein abundance (concentration: 8mM)	NP40-soluble protein abundance (concentration: 10mM)
UniProt P61129	0.917 ± 0.046	0.976 ± 0.051	0.929 ± 0.16	0.907 ± 0.18	0.915 ± 0.12	0.959 ± 0.13	0.954 ± 0.063	1.02 ± 0.063
UniProt P54920 and related entries	0.8901 ± 0.0051	0.858 ± 0.05	0.978 ± 0.042	0.963 ± 0.039	0.962 ± 0.029	0.943 ± 0.021	0.881 ± 0.1	0.951 ± 0.037
